Test results as given in article PMC5570487.
No constants are given. Whether binding was seen depends on the method and setting. In cells and extracts the contact can be indirect. Binding can be weak; no strength is given. Tags and fused reporters may be left off the sequences shown.

T1: CHMP4B-Flag (UniProt Q9H444)
T1 sequence: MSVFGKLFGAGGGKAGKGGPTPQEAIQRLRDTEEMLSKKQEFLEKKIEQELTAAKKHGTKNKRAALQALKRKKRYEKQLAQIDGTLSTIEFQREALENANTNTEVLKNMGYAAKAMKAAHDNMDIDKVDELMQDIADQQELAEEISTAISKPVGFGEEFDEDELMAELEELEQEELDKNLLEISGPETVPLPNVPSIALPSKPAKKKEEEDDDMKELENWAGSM

B1: CHMP4B-Flag (protein, UniProt Q9H444 1-224)
chain: T1 sequence

Legend:
[1] = biological target: T1, CHMP4B-Flag; assay: co-IP; HeLa cells coexpressing V5-tagged cBIN1 (full length or truncated) and CHMP4B-Flag, lysed 48 h after transfection in IP buffer (50 mM Tris-HCl pH 8.0, 150 mM NaCl, 5 mM EDTA, 10 mM KCl, 0.5% Triton-100); immunoprecipitated with anti-Flag
[2] = biological target: full-length cBIN1-V5 (FL: 1-477 aa); assay: co-IP; HeLa cells coexpressing cBIN1-V5 and CHMP4B-Flag, lysed 48 h after transfection in IP buffer (50 mM Tris-HCl pH 8.0, 150 mM NaCl, 5 mM EDTA, 10 mM KCl, 0.5% Triton-100); immunoprecipitated with anti-V5

Row | Molecule | binding [1] | binding [2]
1 | C-terminal (CT) domain of cBIN1, V5-tagged (CT: 256-477 aa) (domain or fragment) | no binding | 
2 | N-BAR domain of cBIN1, V5-tagged (BAR: 1-308 aa) (domain or fragment) | binds | 
3 | full-length cBIN1-V5 (FL: 1-477 aa) | binds | 
4 | B1 |  | binds
